Reference: the supplement of paper PMC4604168 (melanoma cell lines)
This is one part of the list. Repeats are few or missing, and single values can be far off.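 Cells were imaged in 1,536-well plates, and nuclei stained with an antibody against cleaved PARP were counted against all DNA-stained nuclei to give the apoptosis fraction. Screening doses were chosen to leave most cells alive, and resting and induced cleaved-PARP levels differ strongly between cell lines.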

What was measured:
Assay in all cases: cleaved PARP positive nuclei fraction relative to DMSO control; melanoma cells; higher = more apoptosis
Conditions in all cases: library dose: low library concentration; 72 h
[1] = system: WM115
[2] = system: WM1716
[3] = system: WM1745
[4] = system: WM3526
[5] = system: WM3619
[6] = system: WM451Lu

Structure (SMILES)	cleaved PARP positive nuclei fraction [1]	cleaved PARP positive nuclei fraction [2]	cleaved PARP positive nuclei fraction [3]	cleaved PARP positive nuclei fraction [4]	cleaved PARP positive nuclei fraction [5]	cleaved PARP positive nuclei fraction [6]
Cn1c(Nc2ccc(C(F)(F)F)cc2)nc2cc(Oc3ccnc(-c4ncc(C(F)(F)F)[nH]4)c3)ccc21 + O=S(=O)(c1ccccc1)N(CC(F)(F)F)c1ccc(C(O)(C(F)(F)F)C(F)(F)F)cc1 [T0901317] (first compound 0.08 µM, partner dose 1.4 µM)	370%	92%	185%	131%	127%	85%
C[C@@H]1CCN(C(=O)CC#N)C[C@@H]1N(C)c1ncnc2[nH]ccc12 + O=S(=O)(c1ccccc1)N(CC(F)(F)F)c1ccc(C(O)(C(F)(F)F)C(F)(F)F)cc1 [T0901317] (first compound 1 µM, partner dose 1.4 µM)	396%	57.9%	707%	83.2%	77.7%	55.9%
Cn1cncc1[C@@](N)(c1ccc(Cl)cc1)c1ccc2c(c1)c(-c1cccc(Cl)c1)cc(=O)n2C [tipifarnib] + Oc1cc(-c2nc(-c3ccccc3)[nH]c2-c2ccncc2)ccc1Cl [L779450] (first compound 0.01 µM, partner dose 0.2 µM)	392%	96.5%	102%	84.4%	109%	55.7%
Clc1ccc(Nc2nnc(Cc3ccncc3)c3ccccc23)cc1 [vatalanib] + OCCn1cc(-c2cnc3nnn(Cc4ccc5ncccc5c4)c3n2)cn1 [PF04217903] (first compound 2 µM, partner dose 1 µM)	47.7%	19.4%	71.7%	141%	167%	166%
COCC[n+]1c2c(n(Cc3cnccn3)c1C)C(=O)c1ccccc1C2=O + Oc1nc(-c2ccc(C(F)(F)F)cc2)nc2c1CSCC2 [XAV939] (first compound 0.0004 µM, partner dose 2 µM)	58.6%	114%	116%	66.2%	94.9%	145%
OCCn1cc(-c2cnc3nnn(Cc4ccc5ncccc5c4)c3n2)cn1 + CC(C)CCN1c2nc(Nc3cc(F)c(O)c(F)c3)ncc2N(C)C(=O)C1C [BID1870] (first compound 1 µM, partner dose 0.2 µM)	135%	82.5%	95.4%	224%	88%	388%
C=CCNC1=C2C[C@@H](C)C[C@H](OC)[C@H](O)[C@@H](C)/C=C(\C)[C@H](OC(N)=O)[C@@H](OC)/C=C\C=C(/C)C(=O)NC(=CC1=O)C2=O [Tanespimycin] + c1cc(-c2cnn3cc(-c4ccc(OCCN5CCCCC5)cc4)cnc23)ccn1 [Dorsomorphin] (first compound 0.002 µM, partner dose 0.4 µM)	112%	267%	91.5%	35.3%	108%	24.8%
Cn1nnc2c(C(N)=O)ncn2c1=O [temozolomide] + C[C@@H]1CCN(C(=O)CC#N)C[C@@H]1N(C)c1ncnc2[nH]ccc12 [CP690550] (first compound 2 µM, partner dose 1 µM)	135%	124%	96.5%	112%	90.8%	45.7%
COCC[n+]1c2c(n(Cc3cnccn3)c1C)C(=O)c1ccccc1C2=O + O=C(Nc1cccc(Cl)c1)Nc1ncc(CCNc2ncnc3ccsc23)s1 [SNS314] (first compound 0.0004 µM, partner dose 0.0008 µM)	58.9%	43%	82.6%	56.8%	93.8%	179%
Cn1cncc1[C@@](N)(c1ccc(Cl)cc1)c1ccc2c(c1)c(-c1cccc(Cl)c1)cc(=O)n2C [tipifarnib] + c1cc(-c2cnn3cc(-c4ccc(OCCN5CCCCC5)cc4)cnc23)ccn1 [Dorsomorphin] (first compound 0.01 µM, partner dose 0.4 µM)	155%	66.8%	108%	112%	91.9%	284%
Cc1nc(Nc2ncc(C(=O)Nc3c(C)cccc3Cl)s2)cc(N2CCN(CCO)CC2)n1 [dasatanib] + COc1cc2ncnc(Nc3ccc(Oc4ccccc4)cc3)c2cc1OC [SrcI1] (first compound 0.004 µM, partner dose 2 µM)	92.5%	344%	285%	64.1%	90.9%	96.8%
CC(=O)c1c(C)c2cnc(Nc3ccc(N4CCNCC4)cn3)nc2n(C2CCCC2)c1=O [palbociclib] + Cc1cc(N2CCOCC2)cc2[nH]c(-c3c(NC[C@@H](O)c4cccc(Cl)c4)cc[nH]c3=O)nc12 [BMS536924] (first compound 0.04 µM, partner dose 0.2 µM)	122%	66%	159%	98.3%	153%	72.6%
C=CCNC1=C2C[C@@H](C)C[C@H](OC)[C@H](O)[C@@H](C)/C=C(\C)[C@H](OC(N)=O)[C@@H](OC)/C=C\C=C(/C)C(=O)NC(=CC1=O)C2=O [Tanespimycin] + CC(=O)c1c(C)c2cnc(Nc3ccc(N4CCNCC4)cn3)nc2n(C2CCCC2)c1=O [palbociclib] (first compound 0.002 µM, partner dose 0.04 µM)	55.8%	212%	126%	69.6%	147%	187%

Single records (already shown). Order of values: cleaved PARP positive nuclei fraction [1] | cleaved PARP positive nuclei fraction [2] | cleaved PARP positive nuclei fraction [3] | cleaved PARP positive nuclei fraction [4] | cleaved PARP positive nuclei fraction [5] | cleaved PARP positive nuclei fraction [6]
C=CCNC1=C2C[C@@H](C)C[C@H](OC)[C@H](O)[C@@H](C)/C=C(\C)[C@H](OC(N)=O)[C@@H](OC)/C=C\C=C(/C)C(=O)NC(=CC1=O)C2=O [Tanespimycin] + c1cc(-c2cnn3cc(-c4ccc(OCCN5CCCCC5)cc4)cnc23)ccn1 [Dorsomorphin] (first compound 0.002 µM, partner dose 0.4 µM) is entered as 112% | 267% | 91.5% | 35.3% | 108% | 24.8%
C=CCNC1=C2C[C@@H](C)C[C@H](OC)[C@H](O)[C@@H](C)/C=C(\C)[C@H](OC(N)=O)[C@@H](OC)/C=C\C=C(/C)C(=O)NC(=CC1=O)C2=O [Tanespimycin] + CC(=O)c1c(C)c2cnc(Nc3ccc(N4CCNCC4)cn3)nc2n(C2CCCC2)c1=O [palbociclib] (first compound 0.002 µM, partner dose 0.04 µM) is entered as 55.8% | 212% | 126% | 69.6% | 147% | 187%
